In PubChem BioAssay AID200 (DTP/NCI, 2004):
The list is a part of this screen's results and no random one: it is rich in T/C values a quarter to a half above the control, in often repeated tests (any T/C) and in doses without a T/C. Other doses and runs of a compound stand elsewhere. T/C is the treated group as % of the vehicle group. Some entries give survivors of the animals treated and no T/C: the source files T/C as zero there, which appears to mark a toxic dose or a test without result, not a measured value. Some doses without a T/C left all or most animals alive at the check, yet need not have been tolerated: the source hardly ever lists a survival T/C far under the control, and the zero likely stands for such cases as well. Survivors were counted at the toxicity check, usually on the fifth day, unless a day is given; later deaths do not show. Schedule codes are those of the source, read here as Q, the interval in days (D) or hours (H), X, the number of doses. Some doses were run more than once; their values stand side by side, smallest first. For survival time, the PubChem record calls one and a half times the control and up active, and a quarter to a half above the control has no call in these data; cut-offs in other NCI protocols can differ. Some T/C values carry the count of animals alive at the toxicity check (mostly the fifth day); where none is given, no animal had died by that day.

Test system: B6C3F1 mice, B16 melanoma ip, median survival T/C
Assay: NCI In Vivo Anticancer Drug Screen. Data for tumor model B16 Melanoma (intraperitoneal) in B6C3F1 mice
Settings: T/C endpoint: median survival time, higher T/C = longer survival
Protocol: The antitumor activity of compounds was measured in mice bearing transplantable tumors. Survival or tumor size were measured and the results are expressed as the measurement made in the treated group (T) divided by the measurement made in the vehicle treated control group (C). The tumor model used in this assay is B16 Melanoma (intraperitoneal) in B6C3F1 mice

[1] = dose: 50.0 mg/kg/injection, schedule: Q01DX009 (ip), vehicle: saline
[2] = dose: 100.0 mg/kg/injection, schedule: Q01DX009 (ip), vehicle: saline
[3] = dose: 200.0 mg/kg/injection, schedule: Q01DX009 (ip), vehicle: saline
[4] = dose: 25.0 mg/kg/injection, schedule: Q01DX009 (ip), vehicle: saline
[5] = dose: 400.0 mg/kg/injection, schedule: Q01DX009 (ip), vehicle: saline
[6] = dose: 1.0 mg/kg/injection, schedule: Q01DX009 (ip), vehicle: Klucel (hydroxypropylcellulose) (HPC)
[7] = dose: 12.5 mg/kg/injection, schedule: Q01DX009 (ip), vehicle: saline
[8] = dose: 400.0 mg/kg/injection, schedule: Q01DX009 (ip), vehicle: Klucel (hydroxypropylcellulose) (HPC)
[9] = dose: 16.0 mg/kg/injection, schedule: Q02DX009 (ip), vehicle: saline

Question: Which results are given for `O=C(C1CO1)C(Cl)(Cl)Cl` (centres undefined)?
Answer: survivor count [1]: 4 of 10; survivor count [2]: 0 of 10; survivor count [3]: 0 of 10

Question: What does the source list for `ClC1=C(Cl)C(Cl)=C(Cl)C1=Cc1ccccc1`?
Answer: survivor count (dose: 50.0 mg/kg/injection, schedule: Q01DX009 (ip), vehicle: saline with Tween-80): 10 of 10; survivor count (dose: 100.0 mg/kg/injection, schedule: Q01DX009 (ip), vehicle: saline with Tween-80): 2 of 10

Question: Which T/C [4] does the source give for `CN(CCN(C)C(=O)CCOS(C)(=O)=O)C(=O)CCOS(C)(=O)=O` here?
Answer: 132 % of control

Question: And the survivor count [3]?
Answer: 10 of 10

Question: What about the survivor count [5] of the same compound?
Answer: 10 of 10

Question: For `COc1cc([C@@H]2c3cc4c(cc3[C@H](O)[C@H]3COC(=O)[C@H]23)OCO4)cc(OC)c1OC`, which T/C [6] is on record?
Answer: 128 % of control

Question: And the survivor count (dose: 8.0 mg/kg/injection, schedule: Q01DX009 (ip), vehicle: Klucel (hydroxypropylcellulose) (HPC))?
Answer: 6 of 10

Question: And the survivor count (dose: 16.0 mg/kg/injection, schedule: Q01DX009 (ip), vehicle: Klucel (hydroxypropylcellulose) (HPC))?
Answer: 4 of 10

Question: And the survivor count (dose: 32.0 mg/kg/injection, schedule: Q01DX009 (ip), vehicle: Klucel (hydroxypropylcellulose) (HPC))?
Answer: 0 of 10

Question: Which results are given for `Cc1cc2nc3c(=O)[nH]c(=O)nc-3n(CC(O)C(O)C(O)C(O)CO)c2cc1C` (centres undefined)?
Answer: survivor count (dose: 400.0 mg/kg/injection, schedule: Q01DX009 (ip), vehicle: suspension in saline): 10 of 10; survivor count (dose: 800.0 mg/kg/injection, schedule: Q01DX009 (ip), vehicle: suspension in saline): 8 of 10

Question: What does the source list for `COc1cc2c(c(OC)c1OC)-c1ccc(OC)c(=O)cc1[C@@H](NC(C)=O)CC2`?
Answer: T/C (dose: 0.06 mg/kg/injection, schedule: Q01DX009 (ip), vehicle: water): 129 % of control; T/C (dose: 0.09 mg/kg/injection, schedule: Q01DX009 (ip), vehicle: saline): 139 % of control; T/C (dose: 0.12 mg/kg/injection, schedule: Q01DX009 (ip), vehicle: water): 140 % of control [9 of 10 alive]; T/C (dose: 0.13 mg/kg/injection, schedule: Q01DX009 (ip), vehicle: saline): 144 % of control; T/C (dose: 0.25 mg/kg/injection, schedule: Q01DX009 (ip), vehicle: water): 148 % of control; survivor count [6]: 7 of 10; T/C (dose: 1.0 mg/kg/injection, schedule: Q01DX009 (ip), vehicle: water): 140 % of control [8 of 10 alive]; survivor count (dose: 1.5 mg/kg/injection, schedule: Q01DX009 (ip), vehicle: saline): 2 of 10; survivor count (dose: 2.0 mg/kg/injection, schedule: Q01DX009 (ip), vehicle: saline): 10 of 10; survivor count (dose: 3.0 mg/kg/injection, schedule: Q01DX009 (ip), vehicle: saline): 0 of 10; survivor count (dose: 6.0 mg/kg/injection, schedule: Q01DX009 (ip), vehicle: saline): 0 of 10; survivor count (dose: 12.0 mg/kg/injection, schedule: Q01DX009 (ip), vehicle: saline): 0 of 10; survivor count [7]: 0 of 10; survivor count [4]: 0 of 10; survivor count [1]: 0 of 10; survivor count [2]: 0 of 10; survivor count [3]: 0 of 10; survivor count [5]: 0 of 10; T/C (dose: 62.0 micrograms/kg/injection, schedule: Q01DX009 (ip), vehicle: water): 129 % of control; T/C (dose: 62.5 micrograms/kg/injection, schedule: Q01DX009 (ip), vehicle: water): 141 % of control; T/C (dose: 125.0 micrograms/kg/injection, schedule: Q01DX009 (ip), vehicle: water): 145 % of control; T/C (dose: 250.0 micrograms/kg/injection, schedule: Q01DX009 (ip), vehicle: water): 139 % of control; T/C (dose: 500.0 micrograms/kg/injection, schedule: Q01DX009 (ip), vehicle: water): 149 % of control [7 of 10 alive]; survivor count (dose: 1000.0 micrograms/kg/injection, schedule: Q01DX009 (ip), vehicle: water): 0 of 10 and 8 of 10

Question: With `CC(=O)Nc1cc2oc3ccccc3c2cc1[N+](=O)[O-]` as the compound, how does the survivor count (dose: 200.0 mg/kg/injection, schedule: Q01DX009 (ip), vehicle: saline with Tween-80) read?
Answer: 10 of 10

Question: Which results are given for `Cc1ccnc(NN=O)c1`?
Answer: survivor count (dose: 12.5 mg/kg/injection, schedule: Q01DX009 (ip), vehicle: water): 10 of 10; survivor count (dose: 25.0 mg/kg/injection, schedule: Q01DX009 (ip), vehicle: water): 10 of 10

Question: Which results are given for `COc1cccc2c1C(=O)c1c(O)c3c(c(O)c1C2=O)C[C@@](O)(C(C)=O)C[C@@H]3OC1CC(NC(=O)C(N)CC(C)C)C(O)C(C)O1` (some centres undefined)?
Answer: survivor count (dose: 25.0 mg/kg/injection, schedule: Q01DX001 (ip), vehicle: saline): 10 of 10; survivor count (dose: 50.0 mg/kg/injection, schedule: Q01DX001 (ip), vehicle: saline): 9 of 10; survivor count (dose: 100.0 mg/kg/injection, schedule: Q01DX001 (ip), vehicle: saline): 5 of 10; survivor count (dose: 200.0 mg/kg/injection, schedule: Q01DX001 (ip), vehicle: saline): 0 of 10

Question: What does the source list for `COc1cc(C(=O)c2cocc2C(=O)c2ccc3c(c2)OCO3)cc(OC)c1OC`?
Answer: T/C (dose: 100.0 mg/kg/injection, schedule: Q01DX009 (ip), vehicle: Klucel (hydroxypropylcellulose) (HPC)): 129 % of control; T/C (dose: 200.0 mg/kg/injection, schedule: Q01DX009 (ip), vehicle: Klucel (hydroxypropylcellulose) (HPC)): 139 and 144 % of control; T/C [8]: 130 [8 of 9 alive] and 148 % of control; survivor count (dose: 800.0 mg/kg/injection, schedule: Q01DX009 (ip), vehicle: Klucel (hydroxypropylcellulose) (HPC)): 8 of 10

Question: Which results are given for `Cc1c2ccnc(C(N)=O)c2c(C)c2c1[nH]c1ccccc12`?
Answer: survivor count (dose: 800.0 mg/kg/injection, schedule: Q01DX009 (ip), vehicle: distilled water + Tween-80): 10 of 10; survivor count (dose: 1200.0 mg/kg/injection, schedule: Q01DX009 (ip), vehicle: distilled water + Tween-80): 9 of 10; survivor count (dose: 1600.0 mg/kg/injection, schedule: Q01DX009 (ip), vehicle: distilled water + Tween-80): 0 of 10

Question: How did the T/C (dose: 200.0 mg/kg/injection, schedule: Q01DX009 (ip), vehicle: saline + Tween-80 + alcohol) turn out when `c1cc2c(c(CC3CO3)c1CC1CO1)OCCOCCOCCOCCO2` (centres undefined) was run?
Answer: 145 % of control

Question: What about the survivor count (dose: 400.0 mg/kg/injection, schedule: Q01DX009 (ip), vehicle: saline + Tween-80 + alcohol) of the same compound?
Answer: 0 of 10

Question: What about the survivor count (dose: 400.0 mg/kg/injection, schedule: Q01DX009 (ip), vehicle: saline + alcohol) of the same compound?
Answer: 2 of 10

Question: With `Cc1cc(C)c(-c2cc(O)c(C)cc2O)c(C)c1` as the compound, how does the survivor count [8] read?
Answer: 8 of 10

Question: With `O=c1c(O)c(O)c1=O.[NH2-].[NH2-].[NH2-].[NH2-].[NH2-].[Ru+5]` as the compound, how does the T/C (dose: 6.25 mg/kg/injection, schedule: Q01DX009 (ip), vehicle: saline) read?
Answer: 126 % of control

Question: What about the survivor count [7] of the same compound?
Answer: 6 of 10

Question: What about the T/C (dose: 17.36 mg/kg/injection, schedule: Q01DX009 (ip), vehicle: saline) of the same compound?
Answer: 139 % of control

Question: And the T/C (dose: 28.94 mg/kg/injection, schedule: Q01DX009 (ip), vehicle: saline)?
Answer: 148 % of control [8 of 10 alive]

Question: And the survivor count [1]?
Answer: 0 of 10

Question: With `C1CN(P2(N3CC3)=NP(N3CC3)(N3CC3)=NP(N3CC3)(N3CC3)=N2)CCO1` (centres undefined) as the compound, how does the T/C (dose: 4.0 mg/kg/injection, schedule: Q01DX009 (ip), vehicle: saline) read?
Answer: 131 % of control

Question: What about the T/C (dose: 4.0 mg/kg/injection, schedule: Q02DX009 (ip), vehicle: saline) of the same compound?
Answer: 133 % of control

Question: What about the T/C (dose: 8.0 mg/kg/injection, schedule: Q01DX009 (ip), vehicle: saline) of the same compound?
Answer: 148 % of control

Question: What about the T/C (dose: 16.0 mg/kg/injection, schedule: Q01DX009 (ip), vehicle: saline) of the same compound?
Answer: 137 % of control [9 of 10 alive]

Question: And the T/C [9]?
Answer: 132 % of control

Question: What about the survivor count (dose: 64.0 mg/kg/injection, schedule: Q01DX009 (ip), vehicle: saline) of the same compound?
Answer: 9 of 10 and 10 of 10

Question: And the survivor count (dose: 64.0 mg/kg/injection, schedule: Q02DX009 (ip), vehicle: saline)?
Answer: 7 of 10 and 10 of 10

Question: How did the survivor count [9] turn out when `C1CN1P1(N2CC2)=NP(N2CC2)(N2CC2)=NP(N2CC2)(N2CC2)=NP(N2CC2)(N2CC2)=N1` was run?
Answer: 10 of 10
